These are yes or no findings as the source states them, for the method shown. Binding seen in cells or lysates may run through a third protein. Some binding calls cover weakened binding; strength is not graded here.
How the values were obtained:
[1] = molecular target: Twist1 (human (endogenous in Tca8113 and Tb3.1)) (UniProt Q15672); assay: co-IP; lysates (1000 ug protein) of Tca8113 and Tb3.1 cells, precleared with protein A/G beads, 1 ug Twist1 (mouse) or Bcl-2 (rabbit) antibody, IgG as negative control, western blot; cells under normal conditions or CoCl2 hypoxia (Tca8113 12 h, Tb3.1 24 h); binding enhanced after hypoxia
[2] = molecular target: B-cell lymphoma-2 (Bcl-2) (human (endogenous in Tca8113 and Tb3.1)) (UniProt P10415); assay: as above

By UniProt entry, the sequences of proteins in these tests, tags left out.
UniProt Q15672: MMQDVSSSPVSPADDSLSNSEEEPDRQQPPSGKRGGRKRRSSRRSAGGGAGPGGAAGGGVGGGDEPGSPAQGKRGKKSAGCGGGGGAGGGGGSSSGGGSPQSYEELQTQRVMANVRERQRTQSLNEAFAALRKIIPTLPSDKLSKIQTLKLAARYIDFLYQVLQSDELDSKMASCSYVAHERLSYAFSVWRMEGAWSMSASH
UniProt P10415: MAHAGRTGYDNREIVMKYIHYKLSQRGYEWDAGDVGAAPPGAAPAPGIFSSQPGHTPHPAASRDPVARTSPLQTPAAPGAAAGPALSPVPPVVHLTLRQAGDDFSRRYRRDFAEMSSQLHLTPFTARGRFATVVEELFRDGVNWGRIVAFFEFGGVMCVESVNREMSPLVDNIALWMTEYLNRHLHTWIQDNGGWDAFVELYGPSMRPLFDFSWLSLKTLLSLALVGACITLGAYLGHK

Row | binding [1] | binding [2] | Substance
1 | binds | – | B-cell lymphoma-2 (Bcl-2) (from UniProt P10415 1-239)
2 | – | binds | Twist1 (from UniProt Q15672 1-202)
